Among the data in article doi:10.1101/2021.03.11.434947 are binding values, retold here.

This assay concerns the target T1, Nord-HA (Drosophila) (UniProt Q9W192).
T1 sequence: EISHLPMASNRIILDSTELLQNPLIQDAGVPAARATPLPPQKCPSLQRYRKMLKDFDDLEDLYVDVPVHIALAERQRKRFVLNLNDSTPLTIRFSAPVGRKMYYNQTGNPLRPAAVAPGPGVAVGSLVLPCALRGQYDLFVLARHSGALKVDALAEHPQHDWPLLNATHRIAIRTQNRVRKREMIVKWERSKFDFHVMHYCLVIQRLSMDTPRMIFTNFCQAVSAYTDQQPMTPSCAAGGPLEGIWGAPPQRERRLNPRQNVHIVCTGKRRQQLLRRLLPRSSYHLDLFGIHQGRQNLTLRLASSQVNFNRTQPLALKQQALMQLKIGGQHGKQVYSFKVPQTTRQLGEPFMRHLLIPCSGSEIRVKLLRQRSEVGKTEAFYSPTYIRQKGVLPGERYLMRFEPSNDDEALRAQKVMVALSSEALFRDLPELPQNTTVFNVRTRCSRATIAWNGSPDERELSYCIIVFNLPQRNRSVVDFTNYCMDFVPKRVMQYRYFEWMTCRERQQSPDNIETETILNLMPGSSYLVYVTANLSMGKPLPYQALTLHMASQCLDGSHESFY
As to the kind of experiment: co-IP.

These are yes or no findings as the source states them, for the method shown. In cells and extracts the contact can be indirect. Some binding calls cover weakened binding; strength is not graded here. Where a sequence is shown, tags or fusion partners need not be part of it.

B1: Dally-Myc (protein, UniProt Q24114 27-602)
chain: KHLDLDGIHHHQHHLHSATTHHRRRLQRDSRAKDAVGGSTHQCDAVKSYFESIDIKSSGTYSEKGAICGGNCCNNATELELRDKAAGMFEQLLHHHTSSLRGVLETNAKQFQSHVLELAQISENMTHSLFSKVYTRMVPSSRMMIHQLYTEIMNHLIYTSNYTNSNGQLGRRGIGSVQSNLEEAVRHFFVQLFPVAYHQMVHLSKNNLGDLHEDYVNCLQHNFDEMHPFGDIPQQVQSNLGKSVHMSNVFMNALLQAAEVLSEADALYGEQLTDTCKLHLLKMHYCPNCNGHHSSSRSETKLCYGYCKNVMRGCSAEYAGLLDSPWSGVVDSLNNLVTTHILSDTGIINVIKHLQTYFSEAIMAAMHNGPELEKKVKKTCGTPSLTPYSSGEPDARPPPHKNNVKWATDPDPGMVLFLSTIDKSKEFYTTIVDNFCDEQQHSRDDHSCWSGDRFGDYTQLLINPGTDSQRYNPEVPFNAKAQTGKLNELVDKLFKIRKSIGAAAPSNSIQATHDIQNDMGEGSGGGEGQIGDDEEEYGGAHGSGDGSGDGPHTPIEESEGTTTNEVESRDSGKTSG
modifications: heparan sulfate (HS) modification
In the case of B1, the binding entry was “binds”.
